Assay: Metabolomics of fetal brain at E14.5
Assay type: in vivo, C57Bl/6J mice
Details: E14.5 fetal brain metabolite level; for fold of change ABX/SPF: ANOVA contrast ABX vs SPF; for fold of change GF/ABX: ANOVA contrast GF vs ABX; for fold of change GF/SPF: ANOVA contrast GF vs SPF; for fold of change GF/Sp: ANOVA contrast GF vs Sp; for fold of change Sp/ABX: ANOVA contrast Sp vs ABX; for fold of change Sp/SPF: ANOVA contrast Sp vs SPF

SMILES	fold of change ABX/SPF	fold of change GF/ABX	fold of change GF/SPF	fold of change GF/Sp	fold of change Sp/ABX	fold of change Sp/SPF
CC(C(=O)O)C(=O)O [compound 1452]	0.69	1.29	0.89	0.92	1.39	0.97
CC(=O)OC(CC(=O)[O-])C[N+](C)(C)C (stereo not drawn) [compound 1480]	0.81	1.22	0.99	1.05	1.16	0.94
CC(O)CC(=O)OC(CC(=O)[O-])C[N+](C)(C)C (stereo not drawn) [compound 1483]	0.86	1.04	0.90	1.13	0.92	0.80
CCCCCC(=O)OC(CC(=O)[O-])C[N+](C)(C)C (stereo not drawn) [compound 1485]	0.98	1.53	1.50	1.19	1.29	1.26
CCCC(O)CC(=O)OC(CC(=O)[O-])C[N+](C)(C)C (stereo not drawn) [compound 1487]	0.86	1.06	0.91	0.97	1.10	0.95
CCCCCCCC(=O)OC(CC(=O)[O-])C[N+](C)(C)C (stereo not drawn) [compound 1488]	0.91	1.92	1.74	1.20	1.60	1.45
CCCCCCCCCCCC(=O)OC(CC(=O)[O-])C[N+](C)(C)C (stereo not drawn) [compound 1495]	0.82	2.17	1.77	1.29	1.68	1.37
CCCCCCCCCCCCCC(=O)OC(CC(=O)[O-])C[N+](C)(C)C (stereo not drawn) [compound 1496]	0.81	1.46	1.19	0.96	1.52	1.24
CCCCCCCCCCCCCCCC(=O)OC(CC(=O)[O-])C[N+](C)(C)C (stereo not drawn) [compound 1498]	0.70	1.30	0.91	0.88	1.48	1.03
CCCCCCC=CCCCCCCCC(=O)OC(CC(=O)[O-])C[N+](C)(C)C (stereo not drawn) [compound 1499]	0.77	1.74	1.34	1.07	1.62	1.25
CCCCCCCCCCCCCCCCCC(=O)OC(CC(=O)[O-])C[N+](C)(C)C (stereo not drawn) [compound 1500]	0.69	1.13	0.77	0.86	1.31	0.90
CCCCCC=CCC=CCCCCCCCC(=O)OC(CC(=O)[O-])C[N+](C)(C)C (stereo not drawn) [compound 1501]	0.76	2.17	1.66	1.36	1.60	1.22
CCCCCCCC/C=C\CCCCCC(O)CC(=O)OC(CC(=O)[O-])C[N+](C)(C)C (stereo not drawn) [compound 1503]	0.89	0.66	0.59	0.81	0.82	0.73
CCCCCCCCC=CCCCCCCCC(=O)OC(CC(=O)[O-])C[N+](C)(C)C (stereo not drawn) [compound 1504]	0.71	1.60	1.14	1.06	1.50	1.07
CCCC/C=C\CCCCCCCC(=O)OC(CC(=O)[O-])C[N+](C)(C)C (stereo not drawn) [compound 1506]	0.83	2.29	1.90	1.27	1.81	1.50
CCCCCCCCCCCCCCCCCCCC(=O)OC(CC(=O)[O-])C[N+](C)(C)C (stereo not drawn) [compound 1517]	0.75	1.10	0.83	0.80	1.36	1.03
CCCCCC=CCC=CCC=CCC=CCCCC(=O)OC(CC(=O)[O-])C[N+](C)(C)C (stereo not drawn) [compound 1518]	0.76	1.27	0.96	1.05	1.21	0.92
CCCCCC=CCC=CCC=CCC=CCCCCCC(=O)OC(CC(=O)[O-])C[N+](C)(C)C (stereo not drawn) [compound 1519]	0.68	1.36	0.93	1.08	1.26	0.86
CCCCCCCCC=CCC=CCC=CCCCC(=O)OC(CC(=O)[O-])C[N+](C)(C)C (stereo not drawn) [compound 1521]	0.99	1.10	1.09	1.09	1.01	1.00
CCCCC/C=C\C/C=C\CCCCCCCCCC(=O)OC(CC(=O)[O-])C[N+](C)(C)C (stereo not drawn) [compound 1523]	0.76	1.42	1.07	1.02	1.39	1.05
CC/C=C\C/C=C\C/C=C\C/C=C\C/C=C\CCCCCC(=O)OC(CC(=O)[O-])C[N+](C)(C)C (stereo not drawn) [compound 1528]	0.82	0.84	0.68	0.86	0.97	0.79
CCC=CCC=CCC=CCC=CCC=CCC=CCCC(=O)OC(CC(=O)[O-])C[N+](C)(C)C (stereo not drawn) [compound 1529]	0.82	0.99	0.81	0.96	1.03	0.84
CCCCCCCCCCCCCCC(=O)OC(CC(=O)[O-])C[N+](C)(C)C (stereo not drawn) [compound 1536]	0.73	1.45	1.06	1.13	1.28	0.93
CCCCCC=CCC=CCC=CCC=CCC=CCCC(=O)OC(CC(=O)[O-])C[N+](C)(C)C (stereo not drawn) [compound 1537]	0.73	1.14	0.83	0.85	1.34	0.97

Reference: US12491217B2, “Compositions and methods for promoting healthy neural development in an unborn baby” (The Regents of the University of California, priority 2019, dated 2025)
